From PMC10823475, “Design, Synthesis, and Evaluation of Inhibitors of Hedgehog Acyltransferase” (Journal of Medicinal Chemistry, 2024)

tested on: HH signaling (HEK293a SHH+ conditioned media on SHH-Light2 cells); test: Light2 dual-luciferase cell-based HH signaling assay (Firefly); conditions: from cell-signaling EC50 and clogDpH7.4

Row | Structure (SMILES) | LLELight2
1 | CC(=O)N1CCc2sccc2C1c1cccc(C)n1 (stereo not drawn) [Compound 21] | 3.23
2 | C=CCNCC(=O)N1CCc2sccc2C1c1ccccc1 (stereo not drawn) [Compound 12, 2-(Allylamino)-1-(4-phenyl-6,7-dihydrothieno[3,2-c]pyridin-5(4H)-yl)ethan-1-one] | 3.29
3 | C=CC(=O)N1CCc2sccc2C1c1cccc(C)c1 (stereo not drawn) [Compound 16] | 1.38
4 | CCC(C)CNCC(=O)N1CCc2sccc2C1c1cccc(C)c1 (stereo not drawn) [Compound 17] | 3.17
5 | Cc1cccc([C@H]2c3ccsc3CCN2C(=O)CNCC(C)C)n1 [Compound 30] | 6.02
6 | CC(C)CNCC(=O)N1CCc2ccccc2C1c1ccccc1 (stereo in doubt) [Compound 43, (R)-2-((2-Methylpropyl)amino)-1-(1-phenyl-3,4-dihydroisoquinolin-2(1H)-yl)ethan-1-one] | 4.18
7 | CC(=O)N1CCc2sccc2[C@@H]1c1cccc(C)n1 [Compound 29, (R)-1-(4-(6-Methylpyridin-2-yl)-6,7-dihydrothieno[3,2-c]pyridin-5(4H)-yl)ethan-1-one] | 3.86
8 | CC(=O)N1CCc2sccc2C1c1ccccc1 (stereo not drawn) [Compound 5] | 2.46
9 | Cc1cccc(C2c3ccsc3CCN2C(=O)CNCC(C)C)n1 (stereo not drawn) [Compound 24] | 4.95
10 | Cc1cccc(C2c3ccsc3CCN2C(=O)CNCCC(C)C)n1 (stereo not drawn) [Compound 25] | 3.93
11 | CC[C@H](C)CNCC(=O)N1CCc2sccc2C1c1cccc(C)n1 (stereo partly drawn) [Compound 23] | 4.41
12 | CCC(C)CNCC(=O)N1CCc2sccc2C1c1ccccn1 (stereo not drawn) [Compound 19, 2-(2-Methylbutylamino)-1-[4-(pyridin-2-yl)-6,7-dihydro-4H-thieno[3,2-c]pyridin-5-yl]ethanone] | 4.98
13 | CCC(C)CNCC(=O)N1CCc2ccc(Cl)cc2C1c1ccccc1 (stereo not drawn) [Compound 45, 1-(7-Chloro-1-phenyl-3,4-dihydroisoquinolin-2(1H)-yl)-2-((2-methylbutyl)amino)ethan-1-one] | 2.25
14 | CC(C)CNCC(=O)N1CCc2ccccc2C1c1ccccc1 (stereo not drawn) [Compound 39, 2-((2-Methylpropyl)amino)-1-(1-phenyl-3,4-dihydroisoquinolin-2(1H)-yl)ethan-1-one] | 3.67
15 | CCC(C)CNCC(=O)N1CCc2sccc2C1c1cccc(C)n1 (stereo not drawn) [Compound 22] | 4.85

The amount applied is not stated for every result.
